Patent publication US20040018193A1 (priority 2002, published 2004)

Tested on: murine macrophages
Assay type: cell-based
Details: treated macrophages

## IFN-γ: cytokine interferon-gamma
  levels of detectable tryptophan: decreased the levels of detectable tryptophan
